This is an account of results in the supplement of paper PMC6411743.

Protein sequences, listed by entry. Tags and fused reporters are not part of them. Lines headed by an entry give the natural chain unless they say otherwise; changes in a name come on top.
UniProt O60234, whole entry: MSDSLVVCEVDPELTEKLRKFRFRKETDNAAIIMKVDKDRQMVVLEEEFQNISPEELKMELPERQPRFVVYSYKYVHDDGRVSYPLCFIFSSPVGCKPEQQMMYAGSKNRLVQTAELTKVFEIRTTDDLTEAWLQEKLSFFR
UniProt O75396: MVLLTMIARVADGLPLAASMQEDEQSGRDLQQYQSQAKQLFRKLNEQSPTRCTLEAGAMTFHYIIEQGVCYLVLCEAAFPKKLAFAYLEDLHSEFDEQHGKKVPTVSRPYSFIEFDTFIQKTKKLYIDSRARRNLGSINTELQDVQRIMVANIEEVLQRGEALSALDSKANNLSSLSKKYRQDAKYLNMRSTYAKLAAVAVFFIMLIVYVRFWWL
UniProt O95400: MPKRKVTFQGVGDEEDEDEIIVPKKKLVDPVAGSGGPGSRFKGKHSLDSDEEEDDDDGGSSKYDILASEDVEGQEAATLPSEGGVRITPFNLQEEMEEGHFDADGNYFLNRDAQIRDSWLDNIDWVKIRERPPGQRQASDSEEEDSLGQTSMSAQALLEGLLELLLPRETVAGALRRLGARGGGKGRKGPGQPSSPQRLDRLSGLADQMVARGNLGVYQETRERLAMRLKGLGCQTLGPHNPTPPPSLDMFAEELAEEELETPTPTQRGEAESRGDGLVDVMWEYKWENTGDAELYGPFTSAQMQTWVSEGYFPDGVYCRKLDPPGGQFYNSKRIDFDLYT
UniProt O94817, whole entry: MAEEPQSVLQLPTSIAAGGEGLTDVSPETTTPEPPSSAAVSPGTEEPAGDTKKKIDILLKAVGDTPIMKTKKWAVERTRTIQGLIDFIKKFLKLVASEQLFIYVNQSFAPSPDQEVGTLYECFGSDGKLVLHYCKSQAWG
UniProt O75525: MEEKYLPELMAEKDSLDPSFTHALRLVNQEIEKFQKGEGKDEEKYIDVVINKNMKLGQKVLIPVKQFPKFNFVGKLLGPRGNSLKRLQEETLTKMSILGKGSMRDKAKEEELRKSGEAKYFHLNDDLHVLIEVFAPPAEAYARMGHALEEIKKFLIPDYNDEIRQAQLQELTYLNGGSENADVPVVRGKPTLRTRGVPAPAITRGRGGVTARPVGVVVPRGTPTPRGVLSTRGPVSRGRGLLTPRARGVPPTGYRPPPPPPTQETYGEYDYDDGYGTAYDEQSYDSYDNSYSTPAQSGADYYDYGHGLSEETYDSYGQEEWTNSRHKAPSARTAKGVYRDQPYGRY
UniProt O95639, whole entry: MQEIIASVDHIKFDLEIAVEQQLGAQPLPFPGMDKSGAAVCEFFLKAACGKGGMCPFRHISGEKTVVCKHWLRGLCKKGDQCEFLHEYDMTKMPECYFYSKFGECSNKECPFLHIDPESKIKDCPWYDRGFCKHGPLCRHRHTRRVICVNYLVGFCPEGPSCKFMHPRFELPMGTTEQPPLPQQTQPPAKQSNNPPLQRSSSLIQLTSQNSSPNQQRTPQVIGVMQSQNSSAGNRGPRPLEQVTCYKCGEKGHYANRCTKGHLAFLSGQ
UniProt O75369, whole entry: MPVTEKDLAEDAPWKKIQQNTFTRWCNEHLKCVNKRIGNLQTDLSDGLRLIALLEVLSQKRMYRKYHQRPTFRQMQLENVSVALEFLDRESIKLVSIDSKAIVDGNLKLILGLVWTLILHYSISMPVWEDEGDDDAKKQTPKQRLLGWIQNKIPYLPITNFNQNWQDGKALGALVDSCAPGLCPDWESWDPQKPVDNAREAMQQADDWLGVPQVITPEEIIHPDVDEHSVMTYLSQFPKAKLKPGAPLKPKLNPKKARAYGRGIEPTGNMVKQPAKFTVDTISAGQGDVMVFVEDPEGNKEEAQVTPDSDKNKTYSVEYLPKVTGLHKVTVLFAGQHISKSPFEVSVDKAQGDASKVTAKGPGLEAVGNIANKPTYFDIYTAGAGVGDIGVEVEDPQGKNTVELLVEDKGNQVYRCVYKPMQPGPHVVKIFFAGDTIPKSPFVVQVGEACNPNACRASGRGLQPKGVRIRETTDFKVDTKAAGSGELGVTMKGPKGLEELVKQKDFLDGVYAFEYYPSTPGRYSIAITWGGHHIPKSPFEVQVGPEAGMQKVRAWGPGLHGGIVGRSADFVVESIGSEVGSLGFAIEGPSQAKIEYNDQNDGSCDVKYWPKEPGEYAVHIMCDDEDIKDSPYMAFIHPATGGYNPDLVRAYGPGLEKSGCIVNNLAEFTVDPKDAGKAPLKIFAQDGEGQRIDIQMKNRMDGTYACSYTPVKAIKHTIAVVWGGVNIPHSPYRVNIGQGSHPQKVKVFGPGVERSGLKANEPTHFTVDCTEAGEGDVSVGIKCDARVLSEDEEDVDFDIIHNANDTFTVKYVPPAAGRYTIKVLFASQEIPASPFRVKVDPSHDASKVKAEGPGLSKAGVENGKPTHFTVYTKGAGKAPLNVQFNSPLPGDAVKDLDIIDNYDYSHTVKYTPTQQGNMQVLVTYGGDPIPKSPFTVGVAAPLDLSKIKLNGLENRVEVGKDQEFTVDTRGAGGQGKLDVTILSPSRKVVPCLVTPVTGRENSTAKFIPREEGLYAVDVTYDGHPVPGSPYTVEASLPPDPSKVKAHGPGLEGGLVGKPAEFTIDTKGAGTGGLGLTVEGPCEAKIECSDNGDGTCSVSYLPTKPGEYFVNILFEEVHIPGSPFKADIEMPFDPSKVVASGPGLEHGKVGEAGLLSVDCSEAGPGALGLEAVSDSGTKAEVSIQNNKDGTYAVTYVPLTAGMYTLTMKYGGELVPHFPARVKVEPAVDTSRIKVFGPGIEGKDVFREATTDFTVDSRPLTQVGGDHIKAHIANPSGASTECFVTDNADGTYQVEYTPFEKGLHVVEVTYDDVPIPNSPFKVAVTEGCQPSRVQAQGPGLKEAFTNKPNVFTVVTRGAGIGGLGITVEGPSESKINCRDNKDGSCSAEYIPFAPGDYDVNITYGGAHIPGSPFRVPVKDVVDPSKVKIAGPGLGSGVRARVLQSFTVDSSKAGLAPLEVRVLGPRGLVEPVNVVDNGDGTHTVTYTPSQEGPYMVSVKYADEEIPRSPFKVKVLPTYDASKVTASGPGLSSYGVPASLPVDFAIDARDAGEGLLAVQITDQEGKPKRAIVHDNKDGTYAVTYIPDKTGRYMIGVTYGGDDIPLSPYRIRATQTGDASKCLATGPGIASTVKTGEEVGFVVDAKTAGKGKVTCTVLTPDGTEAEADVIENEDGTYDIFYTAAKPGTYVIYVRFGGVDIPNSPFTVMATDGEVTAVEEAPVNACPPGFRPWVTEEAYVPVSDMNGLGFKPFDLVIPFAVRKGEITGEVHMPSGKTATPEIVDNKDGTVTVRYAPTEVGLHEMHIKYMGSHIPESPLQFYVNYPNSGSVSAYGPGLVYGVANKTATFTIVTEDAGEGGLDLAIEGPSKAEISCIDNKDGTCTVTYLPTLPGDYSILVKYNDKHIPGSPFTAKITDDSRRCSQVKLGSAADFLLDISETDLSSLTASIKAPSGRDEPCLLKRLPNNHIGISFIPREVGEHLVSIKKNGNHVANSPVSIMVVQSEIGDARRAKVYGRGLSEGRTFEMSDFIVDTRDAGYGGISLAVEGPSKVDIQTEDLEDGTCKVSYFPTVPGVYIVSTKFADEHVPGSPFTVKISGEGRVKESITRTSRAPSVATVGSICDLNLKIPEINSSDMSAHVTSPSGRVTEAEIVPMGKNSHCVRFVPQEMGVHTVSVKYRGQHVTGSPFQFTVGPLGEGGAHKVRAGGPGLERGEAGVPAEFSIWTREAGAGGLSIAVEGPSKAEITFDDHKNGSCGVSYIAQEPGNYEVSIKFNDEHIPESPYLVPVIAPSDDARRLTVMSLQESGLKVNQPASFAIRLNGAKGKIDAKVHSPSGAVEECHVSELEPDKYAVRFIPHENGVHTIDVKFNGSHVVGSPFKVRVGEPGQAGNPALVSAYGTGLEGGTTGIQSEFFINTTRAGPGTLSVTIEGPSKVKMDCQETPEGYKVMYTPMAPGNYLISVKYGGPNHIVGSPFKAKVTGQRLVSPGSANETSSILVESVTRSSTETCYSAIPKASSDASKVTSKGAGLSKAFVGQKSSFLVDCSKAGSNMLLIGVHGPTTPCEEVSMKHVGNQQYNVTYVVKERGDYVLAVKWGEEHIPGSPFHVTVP
UniProt O75131: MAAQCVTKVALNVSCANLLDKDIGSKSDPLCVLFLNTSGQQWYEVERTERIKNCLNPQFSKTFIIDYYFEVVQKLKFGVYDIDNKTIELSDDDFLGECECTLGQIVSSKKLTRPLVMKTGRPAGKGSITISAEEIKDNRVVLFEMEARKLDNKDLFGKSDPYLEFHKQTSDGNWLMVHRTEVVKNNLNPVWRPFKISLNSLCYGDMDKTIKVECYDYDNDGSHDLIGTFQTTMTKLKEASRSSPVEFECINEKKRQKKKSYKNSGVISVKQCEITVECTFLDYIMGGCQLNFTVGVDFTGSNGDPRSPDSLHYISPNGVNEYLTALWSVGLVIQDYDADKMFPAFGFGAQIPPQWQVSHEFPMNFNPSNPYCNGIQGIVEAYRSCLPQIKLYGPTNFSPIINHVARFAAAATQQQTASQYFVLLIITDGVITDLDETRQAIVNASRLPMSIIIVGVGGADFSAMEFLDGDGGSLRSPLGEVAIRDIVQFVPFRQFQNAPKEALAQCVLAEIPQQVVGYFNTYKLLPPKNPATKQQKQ
UniProt O60880: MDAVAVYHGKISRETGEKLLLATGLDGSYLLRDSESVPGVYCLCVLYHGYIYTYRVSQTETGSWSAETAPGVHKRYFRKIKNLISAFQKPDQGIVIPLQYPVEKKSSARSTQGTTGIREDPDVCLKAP
UniProt O60506: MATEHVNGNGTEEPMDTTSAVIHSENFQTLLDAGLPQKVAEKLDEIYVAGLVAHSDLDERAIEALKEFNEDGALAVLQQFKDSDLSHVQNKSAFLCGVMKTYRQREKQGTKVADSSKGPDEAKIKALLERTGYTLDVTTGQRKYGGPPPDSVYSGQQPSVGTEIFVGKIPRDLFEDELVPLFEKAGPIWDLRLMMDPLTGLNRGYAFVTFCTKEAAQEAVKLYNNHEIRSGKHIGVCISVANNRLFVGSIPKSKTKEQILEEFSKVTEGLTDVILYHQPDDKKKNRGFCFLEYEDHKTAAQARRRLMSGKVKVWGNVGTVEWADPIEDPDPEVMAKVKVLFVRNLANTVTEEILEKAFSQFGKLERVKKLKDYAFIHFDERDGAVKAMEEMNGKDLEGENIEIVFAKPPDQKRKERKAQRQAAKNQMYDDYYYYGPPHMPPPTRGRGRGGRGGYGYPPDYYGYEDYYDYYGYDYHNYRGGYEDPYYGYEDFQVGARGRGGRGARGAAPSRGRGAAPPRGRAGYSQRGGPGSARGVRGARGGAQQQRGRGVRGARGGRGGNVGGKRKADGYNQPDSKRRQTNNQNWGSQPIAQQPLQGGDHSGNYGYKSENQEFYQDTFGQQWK
UniProt O95183: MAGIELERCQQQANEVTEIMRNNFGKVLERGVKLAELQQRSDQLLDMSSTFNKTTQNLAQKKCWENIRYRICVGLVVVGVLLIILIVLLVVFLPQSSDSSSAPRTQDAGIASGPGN
UniProt O75146: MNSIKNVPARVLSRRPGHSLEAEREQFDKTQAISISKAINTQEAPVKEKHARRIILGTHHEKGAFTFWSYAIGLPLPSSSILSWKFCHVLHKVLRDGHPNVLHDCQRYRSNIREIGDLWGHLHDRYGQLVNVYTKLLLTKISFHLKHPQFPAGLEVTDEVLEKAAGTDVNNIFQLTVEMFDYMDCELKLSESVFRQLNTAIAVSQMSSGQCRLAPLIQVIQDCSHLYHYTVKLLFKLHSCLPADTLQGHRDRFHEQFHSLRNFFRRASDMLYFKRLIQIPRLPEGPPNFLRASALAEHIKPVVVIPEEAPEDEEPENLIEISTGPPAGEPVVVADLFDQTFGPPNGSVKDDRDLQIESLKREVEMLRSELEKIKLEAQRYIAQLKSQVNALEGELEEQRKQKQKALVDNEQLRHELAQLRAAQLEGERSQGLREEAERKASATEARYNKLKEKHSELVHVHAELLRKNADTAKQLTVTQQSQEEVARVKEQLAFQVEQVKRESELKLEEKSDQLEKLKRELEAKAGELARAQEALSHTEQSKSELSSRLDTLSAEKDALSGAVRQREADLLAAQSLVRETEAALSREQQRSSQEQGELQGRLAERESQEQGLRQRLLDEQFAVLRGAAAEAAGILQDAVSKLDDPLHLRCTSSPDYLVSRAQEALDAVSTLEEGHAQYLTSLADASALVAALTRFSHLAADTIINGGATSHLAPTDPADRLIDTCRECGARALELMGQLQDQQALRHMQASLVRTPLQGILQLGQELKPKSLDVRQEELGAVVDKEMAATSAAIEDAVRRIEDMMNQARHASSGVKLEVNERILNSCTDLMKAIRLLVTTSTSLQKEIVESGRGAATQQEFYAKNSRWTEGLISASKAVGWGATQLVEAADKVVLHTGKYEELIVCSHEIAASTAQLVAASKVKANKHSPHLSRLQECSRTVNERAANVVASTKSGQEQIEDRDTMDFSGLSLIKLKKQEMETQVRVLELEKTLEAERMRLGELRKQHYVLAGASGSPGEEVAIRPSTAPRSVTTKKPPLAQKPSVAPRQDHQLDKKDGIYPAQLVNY

± gives the standard deviation of the averaged measurements. The list shows a part of the results, in another mix than the full data. Most values lie at the level of the controls, where differences are scatter.

Compound in one experiment: Nc1ncnc2c1ncn2[C@@H]1O[C@H](COP(=O)(O)OP(=O)(O)NP(=O)(O)O)[C@@H](O)[C@H]1O [adenylyl imidodiphosphate]
Kind of experiment: NP40-soluble protein abundance relative to vehicle (solubility fold change) (ratio); higher = more soluble protein in presence of AMP-PNP. To be noted: concentration: 0.1mM. A digest of the protocol:
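Across three independent experiments, values are fold changes against the detergent-processed vehicle for each replicate, based on vsn-normalised intensities. The samples were Jurkat crude lysate treated with eight concentrations (0.1 to 10 mM) for 10 min at room temperature and then 3 min at 37 °C. Lysate was solubilised with 0.8% NP40 and benzonase, ultracentrifuged, and the supernatant analysed by TMT-labelled LC-MS/MS.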
In the case of EXTL3 (UniProt O43909), the NP40-soluble protein abundance was determined as 0.992 ± 0.015.
In the case of UniProt O95475, the NP40-soluble protein abundance was determined as 1.01 ± 0.031.
Still for that read-out and setting: the figure for GMFG (UniProt O60234) is 1.01 ± 0.044; for STAMBP (UniProt O95630) it is 0.977 ± 0.014.
Take SH3BGRL (UniProt O75368): the NP40-soluble protein abundance was determined as 0.925 ± 0.011.
The same measure, in the same setting: as for UniProt O75396, the figure is 0.993 ± 0.028.
Consider SMC2 (UniProt O95347), for which the NP40-soluble protein abundance was 0.986 ± 0.015.
The same measure, in the same setting: as for CD2BP2 (UniProt O95400), the figure is 0.986 ± 0.045; as for SURF6 (UniProt O75683), 1.01 ± 0.036.
Same read-out and setting: as for UniProt O94985-2, the figure is 1.01 ± 0.047; as for ZFAND5 (UniProt O76080), 0.951 ± 0.032.
On the same count and under the same terms, as for DKC1 (UniProt O60832), the figure is 1.01 ± 0.033; as for ATG12 (UniProt O94817), 0.977 ± 0.028; as for HERC2 (UniProt O95714), 0.987 ± 0.066.
Take LETM1 (UniProt O95202): the NP40-soluble protein abundance came to 0.972 ± 0.017.
The same measure, in the same setting: the figure for ATRN (UniProt O75882) is 0.998 ± 0.017; for UniProt O75525 and related entries it is 1.02 ± 0.02; for BRD4 (UniProt O60885) it is 0.979 ± 0.027.
Still for that read-out and setting: as for CPSF4 (UniProt O95639), the figure is 1.02 ± 0.039.
For the target UniProt O60828 and related entries, the NP40-soluble protein abundance was determined as 0.988 ± 0.035.
On the same count and under the same terms, the figure for “UniProt O75369-8|O75369-9|O75369 and related entries” is 0.968 ± 0.01; for UniProt O94927 it is 0.9995 ± 0.0035; for CPNE3 (UniProt O75131) it is 1 ± 0.02.
Turning to IPO7 (UniProt O95373), the NP40-soluble protein abundance is 1.02 ± 0.04.
Still for that read-out and setting: the figure for UniProt O75808 and related entries is 1.013 ± 0.0059; for UniProt O60880 and related entries it is 0.893 ± 0.12.
With UniProt O75928 and related entries, the NP40-soluble protein abundance is 0.975 ± 0.022.
Still for that read-out and setting: the figure for UniProt O94762 and related entries is 0.996 ± 0.048; for UniProt O60506 and related entries it is 1 ± 0.023.
Same read-out and setting: the figure for UniProt O94826 is 0.978 ± 0.033; for PRPSAP2 (UniProt O60256) it is 1.03 ± 0.052.
On the same count and under the same terms, the figure for “UniProt O60333-3|O60333 and related entries” is 0.996 ± 0.033; for VAMP5 (UniProt O95183) it is 1.02 ± 0.033.
As to CBR3 (UniProt O75828), the NP40-soluble protein abundance is 0.983 ± 0.023.
Same read-out and setting: the figure for HIP1R (UniProt O75146) is 1 ± 0.028; for UniProt O75530 it is 1.02 ± 0.025; for SMARCA5 (UniProt O60264) it is 1.03 ± 0.025.

Still in this experiment, the particulars now being: concentration: 0.5mM.
Regarding EXTL3 (UniProt O43909), the NP40-soluble protein abundance came to 1.01 ± 0.016.
Same read-out and setting: as for UniProt O95475, the figure is 1.02 ± 0.042; as for GMFG (UniProt O60234), 1.03 ± 0.036.
Still for that read-out and setting: the figure for STAMBP (UniProt O95630) is 1 ± 0.036; for SH3BGRL (UniProt O75368) it is 0.994 ± 0.04; for UniProt O75396 it is 0.984 ± 0.017.
The same measure, in the same setting: as for SMC2 (UniProt O95347), the figure is 0.995 ± 0.027; as for CD2BP2 (UniProt O95400), 1 ± 0.024.
Regarding SURF6 (UniProt O75683), the NP40-soluble protein abundance amounted to 1.04 ± 0.083.
The same measure, in the same setting: as for UniProt O94985-2, the figure is 1.02 ± 0.029; as for ZFAND5 (UniProt O76080), 0.943 ± 0.032; as for DKC1 (UniProt O60832), 1.03 ± 0.014.
Still for that read-out and setting: the figure for ATG12 (UniProt O94817) is 1.01 ± 0.022; for HERC2 (UniProt O95714) it is 1.01 ± 0.025.
Consider LETM1 (UniProt O95202), for which the NP40-soluble protein abundance amounted to 0.991 ± 0.043.
Still for that read-out and setting: as for ATRN (UniProt O75882), the figure is 0.993 ± 0.032.
Still for that read-out and setting: as for UniProt O75525 and related entries, the figure is 1.02 ± 0.022; as for BRD4 (UniProt O60885), 0.999 ± 0.05.
On the same count and under the same terms, as for CPSF4 (UniProt O95639), the figure is 0.991 ± 0.039; as for UniProt O60828 and related entries, 1.08 ± 0.05; as for “UniProt O75369-8|O75369-9|O75369 and related entries”, 0.995 ± 0.035.
In the case of UniProt O94927, the NP40-soluble protein abundance was found to be 1 ± 0.036.
The same measure, in the same setting: the figure for CPNE3 (UniProt O75131) is 1 ± 0.052.
As for IPO7 (UniProt O95373), the NP40-soluble protein abundance was 1.015 ± 0.0091.
On the same count and under the same terms, the figure for UniProt O75808 and related entries is 0.994 ± 0.025; for UniProt O60880 and related entries it is 0.84 ± 0.046.
As for UniProt O75928 and related entries, the NP40-soluble protein abundance was found to be 1 ± 0.022.
Still for that read-out and setting: as for UniProt O94762 and related entries, the figure is 0.968 ± 0.028; as for UniProt O60506 and related entries, 0.985 ± 0.022; as for UniProt O94826, 0.992 ± 0.034.
With PRPSAP2 (UniProt O60256), the NP40-soluble protein abundance turned out to be 0.922 ± 0.057.
On to “UniProt O60333-3|O60333 and related entries”, for which the NP40-soluble protein abundance stood at 0.9765 ± 0.0086.
The same measure, in the same setting: the figure for VAMP5 (UniProt O95183) is 1 ± 0.025; for CBR3 (UniProt O75828) it is 0.991 ± 0.032.
Regarding HIP1R (UniProt O75146), the NP40-soluble protein abundance turned out to be 1.01 ± 0.027.
Still for that read-out and setting: as for UniProt O75530, the figure is 1.02 ± 0.045.
Consider SMARCA5 (UniProt O60264), for which the NP40-soluble protein abundance is 1.04 ± 0.043.
